Measured values from patent US20240124529A1, “ANTIVIRAL […]-[…]-CoV-2 PEPTIDES AND USES THEREOF” (Dana-Farber Cancer Institute, Inc., priority 2020, published 2024).
Not every detail of the peptide structures is certain; ends, links or a residue may be inferred. Bridge positions count the residues as written; N and C are the ends. Square brackets hold non-standard residues; d marks the D form. Peptide text beside a SMILES is read from it. S5 = C=CCCC[C@](C)(N)C(=O)O; Nle = CCCC[C@H](N)C(=O)O

Assays:
[1] = type: physicochemical; conditions: 25-50 μM peptide in 50 mM potassium phosphate (pH 7.5) or water
SARS-CoV-2 = conditions: peptides screened at 25 μM; FIG. 23

Structure (SMILES)	alpha-helical structure in solution by circular dichroism [1]	block of infection of Vero E6 cells (fraction infected cells) vs vehicle control (SARS-CoV-2)
CCCC[C@@H]1NC(=O)[C@H](CCC(=O)O)NC(=O)[C@H](Cc2ccc(O)cc2)NC(=O)[C@@](C)(NC(=O)[C@H](CC(C)C)NC(=O)[C@H](CC(=O)O)NC(=O)[C@H](CC(C)C)NC(=O)[C@H](Cc2ccccc2)NC(=O)[C@@H](NC(=O)[C@@H](NC(=O)[C@H](CC(N)=O)NC(=O)[C@@H](NC(=O)[C@H](CCC(N)=O)NC(=O)[C@H](CC(=O)O)NC(=O)[C@H](CC(C)C)NC(=O)[C@H](CO)NC(C)=O)[C@@H](C)CC)C(C)C)[C@@H](C)O)CCCC=CCCC[C@@](C)(C(=O)N[C@@H](CCCCN)C(=O)N[C@@H](CC(C)C)C(=O)N[C@@H](CCC(=O)O)C(=O)N[C@@H](CCC(=O)O)C(=O)N[C@@H](C)C(=O)N[C@H](C(=O)N[C@@]2(C)CCCC=CCCC[C@@](C)(C(=O)N[C@@H](CO)C(=O)N[C@@H](Cc3ccc(O)cc3)C(=O)N[C@H](C(=O)N[C@@H](CC(=O)O)C(=O)N[C@@H](CC(C)C)C(=O)N[C@@H](CCCCN)C(=O)N[C@@H](CCC(=O)O)C(N)=O)[C@@H](C)CC)NC(=O)[C@H](CCC(=O)O)NC(=O)[C@H](CC(C)C)NC(=O)[C@H](CCCCN)NC2=O)[C@@H](C)CC)NC1=O [SEQ ID NO:177, SLDQINVTFLDLX1YEBX2KLEEAIX3KLEX4SYIDLKE] (Ac-SLDQINVTFLDL[S5]YE[Nle][S5]KLEEAI[S5]KLE[S5]SYIDLKE-NH2; staple 13-17, 24-28)	effectively induced alpha-helicity	
CC[C@H](C)[C@H](NC(C)=O)C(=O)N[C@@H](CCC(N)=O)C(=O)N[C@@]1(C)CCCC=CCCC[C@@](C)(C(=O)N[C@@H](CC(C)C)C(=O)N[C@@H](CC(N)=O)C(=O)N[C@@H](CCC(=O)O)C(=O)N[C@H](C(=O)N[C@@H](C)C(=O)N[C@@H](CCCCN)C(=O)N[C@@]2(C)CCCC=CCCC[C@@](C)(C(=O)N[C@@H](CC(C)C)C(N)=O)NC(=O)[C@H](CCC(=O)O)NC(=O)[C@H](CC(N)=O)NC(=O)[C@H](CC(C)C)NC2=O)C(C)C)NC(=O)[C@H](CC(=O)O)NC(=O)[C@H]([C@@H](C)CC)NC(=O)[C@H](CCC(=O)O)NC1=O [SEQ ID NO:52, IQX1EIDX2LNEVAKX3LNEX4L] (Ac-IQ[S5]EID[S5]LNEVAK[S5]LNE[S5]L-NH2; staple 3-7, 14-18)		inhibit infection
CC[C@H](C)[C@H](NC(=O)[C@H](Cc1ccc(O)cc1)NC(=O)[C@H](CCC(N)=O)NC(=O)[C@H](CCC(=O)O)NC(=O)[C@H](Cc1ccc(O)cc1)NC(=O)[C@H](CCCCN)NC(=O)CNC(=O)[C@H](CC(C)C)NC(=O)[C@H](CCC(=O)O)NC(=O)[C@H](CCC(N)=O)NC(=O)[C@H](CC(C)C)NC(=O)[C@H](CC(=O)O)NC(=O)[C@@H](NC(=O)[C@H](CC(C)C)NC(=O)[C@H](CO)NC(=O)[C@]1(C)CCCC=CCCC[C@](C)(NC(=O)[C@H](C)NC(=O)[C@@H](NC(=O)[C@H](CCC(=O)O)NC(=O)[C@H](CC(N)=O)NC(=O)[C@H](CC(C)C)NC(=O)[C@]2(C)CCCC=CCCC[C@](C)(NC(=O)[C@H](CCC(N)=O)NC(=O)[C@@H](NC(=O)[C@H](CC(N)=O)NC(=O)[C@@H](NC(=O)[C@@H](NC(=O)[C@H](CO)NC(=O)[C@H](C)NC(=O)[C@H](CC(N)=O)NC(=O)[C@@H](NC(=O)CNC(=O)[C@H](CO)NC(=O)[C@@H](NC(C)=O)[C@@H](C)CC)[C@@H](C)CC)C(C)C)C(C)C)[C@@H](C)CC)C(=O)N[C@@H](CCC(=O)O)C(=O)N[C@@H]([C@@H](C)CC)C(=O)N[C@@H](CC(=O)O)C(=O)N2)C(C)C)C(=O)N[C@@H](CC(N)=O)C(=O)N[C@@H](CC(C)C)C(=O)N[C@@H](CC(N)=O)C(=O)N1)[C@@H](C)CC)C(N)=O [SEQ ID NO:158]	effectively induced alpha-helicity	
